Measured values: patent US7371889B2, “Chemical entities with multiple modes of anti-inflammatory action” (Sami Labs Limited, priority 2002, dated 2008)
Some results were stated once for a whole list of compounds, not compound by compound.

Tested on: Freund's adjuvant (FA) arthritis
Test: Freund's adjuvant (FA) arthritis in rats, nociception
Format: in vivo
Settings: oral administration, dose giving the same extent of inhibition
Description: Freund's adjuvant (FA) arthritis was induced in rats by a single intraplantar injection into the right hindpaw of 100 microl of Mycobacterium butirricum (6 mg/mL). […] Hindpaw swelling (days 3, 7, 11, 14, 17, 21) and nociception (days 15 and 21) were measured. On day 22 rats were sacrificed, draining lymph nodes were removed and T cells isolated. In vitro proliferation of T cells following stimulation with concanavalin A (0.5-5 mcg/mL) was measured using a tritiated thymidine incorporation assay.

## CC(C)Cc1ccc(C(C)C(=O)O)cc1 (stereo not shown) [I, Ibuprofen]
  dose at which anti-nociceptive: greater than 10 mg/kg
